This assay has as its target T1, SIRT1 (mouse (endogenous in C57BL/6J tissues, HT22 and BV2 cells)) (UniProt Q923E4).
T1 sequence: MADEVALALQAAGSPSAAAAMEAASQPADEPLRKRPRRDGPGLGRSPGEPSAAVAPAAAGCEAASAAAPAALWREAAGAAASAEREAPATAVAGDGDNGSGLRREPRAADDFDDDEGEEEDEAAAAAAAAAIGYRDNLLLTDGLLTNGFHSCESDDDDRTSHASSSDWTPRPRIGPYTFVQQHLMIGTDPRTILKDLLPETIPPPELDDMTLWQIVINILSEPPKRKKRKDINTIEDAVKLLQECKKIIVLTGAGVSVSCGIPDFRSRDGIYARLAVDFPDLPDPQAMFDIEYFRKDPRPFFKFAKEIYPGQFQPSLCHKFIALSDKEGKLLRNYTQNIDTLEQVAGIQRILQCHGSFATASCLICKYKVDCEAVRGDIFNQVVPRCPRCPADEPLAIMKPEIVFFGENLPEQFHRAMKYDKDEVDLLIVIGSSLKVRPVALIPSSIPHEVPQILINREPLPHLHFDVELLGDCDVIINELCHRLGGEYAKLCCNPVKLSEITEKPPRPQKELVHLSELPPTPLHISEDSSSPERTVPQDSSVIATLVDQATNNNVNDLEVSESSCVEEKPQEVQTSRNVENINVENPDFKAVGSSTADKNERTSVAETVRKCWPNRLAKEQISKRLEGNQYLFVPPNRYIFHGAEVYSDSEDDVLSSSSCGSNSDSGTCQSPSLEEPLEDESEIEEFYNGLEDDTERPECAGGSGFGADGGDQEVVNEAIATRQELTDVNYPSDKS
Briefly: co-IP; HT22 cell lysate, endogenous proteins; cells treated with nicotine (1, 10, 100 ng/mL), resveratrol, SRT1720, Selisistat, FK866, Nampt-IN-1, cotinine, β-galactose or an nAChR inhibitor; SIRT1 or NAMPT/PBEF antibody, protein A/G agarose, western blot; IgG as negative control. Background: In western blotting, separated proteins are transferred to a membrane and probed.

No constants are given. Whether binding was seen depends on the method and setting. In cells and extracts the contact can be indirect. Binding can be weak; no strength is given.

As to NF-κB (mouse (endogenous in HT22)), the binding result was “binds”.

These data come from paper PMC9935903.
